# Screen size: about 2,000 compounds; about 190 (9.5%) were called active. The shares of active, inactive and inconclusive entries below differ from those in the screen.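 Rule for the calls: active = fitted activation curve crossing 40% at a concentration no higher than the sample's top valid tested dose; inconclusive = flat fitted curve at 30% to 70% activation, or poor curve fit; inactive = signal decrease, flat curve within 30%, or the rest.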
# Assay: sustained heat shock response element induction – cell-based, mouse, luciferase, cherry-pick, dose, confirmation (AID 602296);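 note: test compounds applied by themselves with no MG132 co-treatment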
# Settings: NIH3T3-HGL HSF-1 response element luciferase, 48 h; at 26 µM (top of the series) unless noted
row,SMILES,activation
1,CC(C)(c1ccccc1)c1ccc(OCCCN2CCNCC2)cc1,inconclusive: -10.8%
2,c1ccc2c(c1)nnn1c3ccccc3nc21,inconclusive: -79.7%
3,CC(=O)c1c(N2CCOCC2)nc2ccc(Br)cc2c1-c1ccccc1,inconclusive: -7.61%
4,CCCCc1nnc(NC(=O)C(C)Sc2nc(C)cc(=O)[nH]2)s1 (stereo not given),inactive: 2.97%
5,Cc1ccccc1-c1nnc(CS(=O)(=O)c2ccccc2)o1,inconclusive: -51%
6,O=C(O)c1cccnc1Sc1ccccc1,inconclusive: 15.9%
7,N#CCCN1CCN(C(=S)c2ccc(-c3ccc(Cl)c(Cl)c3)o2)CC1,inconclusive: 52.8%
8,Cc1cc(C)n2cc(COc3ccc4ccccc4c3)nc2n1,inconclusive: -71.4%
9,O=C(Nc1ccccn1)c1ccc2ccccc2n1,inconclusive: -53.7%
10,CCN(CC)c1ccc2c(Cl)c(Br)c(=O)oc2c1,inconclusive: -100%
11,Cc1cccnc1Nc1nc(-c2ccccn2)cs1,inconclusive: -50.6%
12,C=CS(=O)c1sc(Cl)c(N2CCOCC2)c1[N+](=O)[O-] (stereo not given),inconclusive: -100%
13,Cc1cccc(N=N/C(=C\O)C(=O)c2ccc(Br)cc2)c1,inconclusive: -39.2%
14,CCCCOc1ccc(CSc2ncn[nH]2)cc1,inconclusive: 2.77%
15,Cc1ccc2oc(-c3cccc(N)c3)nc2c1,inconclusive: -74.4%
16,COc1cc(/C=C/C(=O)N2C(=O)c3cccc(N)c3C2=O)cc(OC)c1OC,inconclusive: -21.7%
17,CC1(C)CC(=O)C/C(=N/NC(=O)CCCOc2ccc(Cl)cc2Cl)C1,inconclusive: 29%
18,Cc1ccc2nc(-c3ccc4c(c3)OCCO4)cc(C(=O)O)c2c1,inconclusive: -19%
19,O=C(CCN1C(=O)c2ccccc2C1=O)C1=NN[C@@H]2C(=O)N(c3ccc(F)cc3)C(=O)[C@H]12,inconclusive: -16.7%
20,CCOC(=O)COc1ccc(Br)cc1/C=C/c1[nH]c(=O)[nH]c(=O)c1[N+](=O)[O-],inconclusive: -40.9%
21,OC(CN1c2ccccc2Sc2ccccc21)Cn1nnc2ccccc21 (stereo not given),inconclusive: -39.4%
22,O=c1c2c(nc3cc(-c4cccc(F)c4)[nH]n13)CCC2,inconclusive: -21.9%
23,O=c1[nH]c2ccccc2c2cn(-c3ccccc3)nc12,inconclusive: 55.5%

row,SMILES,activation
1,CC(C)(C)NC(=O)CSc1ncnc2c1nnn2Cc1ccccc1Cl,inconclusive: 44.5%
2,COc1ccc(NC(=O)CSc2nc(N)c3cc4c(nc3n2)CCCC4)cc1,inconclusive: 6.86%
3,Cn1c(CN2CCN(c3ccc(Cl)cc3)CC2)nc2ccccc21,inactive: 7.35%
4,O=C(Nc1ccccc1)N1CCCN(c2ccc(C(F)(F)F)cc2[N+](=O)[O-])CC1,inconclusive: 3.25%
5,COc1cccc(C(=O)Nc2ccc3c(C)cc(=O)oc3c2)c1,inconclusive: 9.42%
6,Cc1ccccc1C(=O)O/N=C1\CCS(=O)(=O)c2sccc21,inconclusive: 41.8%
7,CN1CCN(C(=O)c2cc3sc4ccccc4c3s2)CC1,inconclusive: -79.5%
8,Cc1ccc(S/C=C\C(=O)c2ccccc2)cc1,inconclusive: 156%
9,COCCOC(=O)C1=C(C)NC(C)=C(C(=O)OCCOC)C1/C=C/c1ccccc1OC,inactive: -6.58%
10,Cc1ccc(S(=O)(=O)N(C)c2ccc(C)c([N+](=O)[O-])c2)cc1,inactive: 0.076%
11,CCOc1ccc(NC(=O)C2CC(=O)N3CCCN=C3S2)cc1 (stereo not given),inactive: -13.2%
12,COc1cccc(-c2c(C#N)c(N)nc3c2c(C)nn3-c2ccccc2)c1O,inactive: -40.7%
13,O=C(COC(=O)/C=C/C(=O)OCC(=O)Nc1ccccc1F)Nc1ccccc1F,inconclusive: -33.4%
14,O=S1(=O)Nc2c(ccc3cccnc23)-c2ccccc21,inconclusive: 238%
15,CCCCCCOc1ccc(/C(C)=N/NC2=NCCN2)cc1[N+](=O)[O-],inconclusive: -107%
16,O=C(CBr)c1ccc([N+](=O)[O-])c(CS(=O)(=O)c2ccc(Cl)cc2)c1,inconclusive: 33.6%
17,O=C(CCC1CCCC1)N=C1SC2CS(=O)(=O)CC2N1c1ccccc1F (stereo not given),inactive: 0.463%
18,O=C(N/N=C(\c1ccccc1)c1cccnc1)c1cccc(F)c1,inconclusive: 36.4%
19,COc1ccc(C(=O)n2nc(C)cc2Nc2ccccc2)cc1,inconclusive: 97.1%
20,COc1ccc(/C=C(\C#N)c2c[nH]c3ccccc23)cc1,inconclusive: -52.6%
21,C=CCn1c(O)c(C2=c3ccccc3=NC2=O)c2ccccc21,inconclusive: 5.49%
22,Cc1ccc(/C=c2\s/c(=C(/C#N)C(=O)N3CCCC3)n(Cc3ccco3)c2=O)s1,inconclusive: -14.7%
23,c1ccc(N2CC3CCc4ccccc4C3=N2)cc1 (stereo not given),inconclusive: 87.2%

row,SMILES,activation
1,Cc1cccc(C(C#N)c2ccc(Cl)nn2)c1 (stereo not given),inactive: 5.31%
2,CC(C)N(Cc1ccccc1)C(=O)COC(=O)/C=C/c1cnc2ccccc2n1,inactive: 10.3%
3,Cc1ccc(NC(=O)c2c(Cl)n(C)c3ccccc23)cc1,inconclusive: -7.89%
4,CCC(=O)Nc1ccc2nn(-c3ccc(F)cc3)nc2c1,inconclusive: -62.5%
5,O=C(c1ccccc1)c1ccc2nc(-c3ccco3)c(-c3ccco3)nc2c1,inconclusive: -51.2%
6,O=C(NC(=S)N1CCN(c2ccc(F)cc2)CC1)c1cccs1,inconclusive: -19.1%
7,Fc1cccc(-c2nnn3c2nc(Cl)c2ccccc23)c1,inconclusive: -87.8%
8,CC(C)OC(=O)c1c(NC(=O)Cn2cnc([N+](=O)[O-])n2)sc2c1CCCC2,inconclusive: 4.77%
9,C=CCn1c(COc2ccc(CC)cc2)nnc1SC/C(O)=C(\C#N)c1nc2ccccc2[nH]1,inactive: -17.9%
10,COC(=O)/C(=C\Nc1ccccc1N)c1ncc(C(F)(F)F)cc1Cl,inconclusive: 53.6%
11,COc1ccc(/C=N/Nc2cc(OC)ncn2)cc1,inconclusive: -76.1%
12,CC(C)CSc1nnc2c(n1)[nH]c1ccccc12,inconclusive: -24%
13,CCOc1ncccc1C(=O)N(C)CC1COc2ccccc2O1 (stereo not given),inactive: 4.02%
14,O=C(Nc1ccc(N2CCN(C(=O)c3ccccc3)CC2)cc1)c1ccc([N+](=O)[O-])o1,inconclusive: -101%
15,O=C1c2cc([N+](=O)[O-])cc3cc([N+](=O)[O-])cc(c23)C(=O)N1c1ccccn1,inconclusive: 15.5%
16,COC(=O)c1cccc(Cn2c(Cl)c(/C=N/Nc3ccccc3C)sc2=O)c1,inconclusive: 253%
17,CCOC(=O)c1c(N2C(=O)C3C4C=CC(O4)C3C2=O)sc2c1CCCC2 (stereo not given),inconclusive: -73.5%
18,Fc1ccc(Sc2ccccc2CNC2=NCCN2)cc1,inactive: -23.8%
19,O=C(CSc1nnc(-c2c[nH]c3ccccc23)o1)c1ccccc1,inconclusive: 145%
20,Cc1ccc(NC(=O)c2ccccc2O)cc1,inconclusive: -6.45%
21,CCN(CC)CCn1nc2c3c(cccc3c1=O)-c1ccccc1-2,inconclusive: -61.6%
22,Cc1nonc1C1CCCN1Cc1cn[nH]c1-c1ccc(-c2ccccc2)cc1 (stereo not given),inactive: -16.4%
23,O=C1C(Cl)=C(N2CCN(c3ccccc3[N+](=O)[O-])CC2)C(=O)c2ccccc21,inconclusive: -103%

# A different layout for some results above.
row	SMILES	activation
6	O=C(NC(=S)N1CCN(c2ccc(F)cc2)CC1)c1cccs1	inconclusive: -19.1%
7	Fc1cccc(-c2nnn3c2nc(Cl)c2ccccc23)c1	inconclusive: -87.8%
8	CC(C)OC(=O)c1c(NC(=O)Cn2cnc([N+](=O)[O-])n2)sc2c1CCCC2	inconclusive: 4.77%
9	C=CCn1c(COc2ccc(CC)cc2)nnc1SC/C(O)=C(\C#N)c1nc2ccccc2[nH]1	inactive: -17.9%
10	COC(=O)/C(=C\Nc1ccccc1N)c1ncc(C(F)(F)F)cc1Cl	inconclusive: 53.6%

# Further records:

row,SMILES,activation
1,CC(=O)N1CCC2(CC1)NC(=O)N(c1ccccc1)N2,inconclusive: -53.2%
2,Cc1cccc(NC(=O)CCc2c(C)nn(-c3ccc(N4CCCCC4)nn3)c2C)c1,inconclusive: 15.2%
3,CN(C)c1nc(C=C(C#N)C#N)c(Cl)n1-c1ccc(F)cc1,inconclusive: -102%
4,CSS(=O)(=O)c1cccc2cccnc12,inconclusive: -36.7%
5,CC1=CC(C)(C)Nc2ccc(OC(=O)C(Cc3ccccc3)N3C(=O)c4ccccc4C3=O)cc21 (stereo not given),inactive: -75.7%
6,COc1cc(-c2nnc(CSc3nnc(Nc4ccc(C(C)C)cc4)s3)o2)cc(OC)c1OC,inconclusive: -24%
7,S=c1nc(SCc2ccccc2)[nH]c2ccccc12,inactive: 2.98%
8,COC(=O)c1ccc2c(c1)C(C)(C)C(/C=C/c1ccc(O)cc1)=[N+]2C,inconclusive: -102%
9,COc1ccc(CCNC(=O)C2CCCN(Cc3nc(-c4ccccc4C)oc3C)C2)cc1OC (stereo not given),inactive: -12.3%
10,Cc1cc(NC(=O)CSc2nc3c(cc2C#N)CCC3)no1,inactive: -57.8%
11,COc1ccc(N=C(C)C2=C(O)c3ccccc3C2=O)cc1,inconclusive: -92.9%
12,Cc1cccc(NC(=O)CSc2cc(C)c(C#N)c3nc4ccccc4n23)c1,inconclusive: 171%
13,COc1ccccc1/C=C/C1=NC(=C\C=C/c2ccccc2)/C(=O)O1,inconclusive: -38.9%
14,CCN(CC)CCOc1ccc(/C(=C(/Cl)c2ccccc2)c2ccccc2)cc1,inactive: -59%
15,CS(=O)(=O)c1ccc(C(=O)OCc2nnc(-c3ccccc3)o2)cc1[N+](=O)[O-],inconclusive: -98.8%
16,COC(=O)Nc1ccc(S(=O)(=O)Nc2cccc3ccccc23)cc1,inactive: -34.8%
17,Cc1cccc(/C=N\NC(=O)c2ccc(Cl)cc2)c1O,inconclusive: -20.2%
18,O=C(/C=C/Nc1ccccc1)c1ccccc1,inconclusive: -15%
19,O=C(c1ccco1)c1coc2c1cc(O)c1ccccc12,inconclusive: -12.3%
20,O=C(CSc1nnc(-c2ccco2)n1Cc1ccccc1)OC1CCCCC1,inconclusive: 4.16%
21,O=S(Cc1cc(Sc2ccccc2)nc(-c2ccccc2)n1)c1ccccc1 (stereo not given),inconclusive: -78.7%

# Source: PubChem BioAssay AID602296 (Broad Institute, 2012)
